PubChem BioAssay AID1224828 – NIAID, 2016

Purpose: 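Knock-downs that increase or decrease LPS-induced p65 nuclear translocation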 (primary screen)
Cell system: mouse RAW264.7 G9 macrophage reporter cells (GFP-p65, Tnf promoter-mCherry)
Reagent: siRNA pool against mouse genes, 100 nM
Timing: 2 days siRNA transfection, then 40 min LPS before fixation
Conditions: LPS (Salmonella minnesota R595) at 10 ng/ml
Measured: 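Imaged p65 nuclear translocation ratio, normalised to the plate median, converted to robust z-scores and averaged across two replicates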
Reading the numbers: p65 translocation robust z-score: higher = more nuclear NF-kappaB p65 after LPS than the plate median; nuclear/cytoplasmic p65 ratio: higher = more nuclear NF-kappaB p65
Active means: 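Active if robust z is above 3.3 (negative regulators) or below -1.56, the Tlr4 control median (positive regulators); activity score 50 or more; control wells not called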
Calls: active = hit (p65 shift raised or lowered); inactive = no clear change
The whole screen tested about 17,000 reagents; this is a part drawn at random. In the full data, 762 (4.5%) were called active. 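Active calls include both raised and lowered p65 entry, mostly lowered; wells with fewer than 50 cells lack a z-score.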 Raw values are not corrected between plates. A number with no mark means an inactive call. The numbers tell different reagents against one gene apart. A reagent listed more than once was tested more than once; the source does not tell the runs apart. Reagent sequences are not shown.

Nr1h5
- p65 translocation robust z-score: 3.14
- nuclear/cytoplasmic p65 ratio, rep 1: 2.3
- nuclear/cytoplasmic p65 ratio, rep 2: 1.9
- low cell count flag: enough cells to score

Fabp4
- p65 translocation robust z-score: 0.07
- nuclear/cytoplasmic p65 ratio, rep 1: 1.49
- nuclear/cytoplasmic p65 ratio, rep 2: 1.36
- low cell count flag: enough cells to score

Sbds
- p65 translocation robust z-score: -0.83
- nuclear/cytoplasmic p65 ratio, rep 1: 1.49
- nuclear/cytoplasmic p65 ratio, rep 2: 1.32
- low cell count flag: enough cells to score

Klra22
- p65 translocation robust z-score: -1.76 (active)
- nuclear/cytoplasmic p65 ratio, rep 1: 1.2
- nuclear/cytoplasmic p65 ratio, rep 2: 1.19
- low cell count flag: enough cells to score

Hoxd13
- p65 translocation robust z-score: 0.4
- nuclear/cytoplasmic p65 ratio, rep 1: 1.47
- nuclear/cytoplasmic p65 ratio, rep 2: 1.44
- low cell count flag: enough cells to score

Uqcrq
- p65 translocation robust z-score: -0.42
- nuclear/cytoplasmic p65 ratio, rep 1: 1.49
- nuclear/cytoplasmic p65 ratio, rep 2: 1.39
- low cell count flag: enough cells to score

Tmem230
- nuclear/cytoplasmic p65 ratio, rep 1: 1.22
- nuclear/cytoplasmic p65 ratio, rep 2: 1.51
- low cell count flag: fewer than 50 cells per well; well left out of scoring

Vmn1r26
- p65 translocation robust z-score: -1.02
- nuclear/cytoplasmic p65 ratio, rep 1: 1.28
- nuclear/cytoplasmic p65 ratio, rep 2: 1.09
- low cell count flag: enough cells to score

Vipas39
- p65 translocation robust z-score: -0.31
- nuclear/cytoplasmic p65 ratio, rep 1: 1.52
- nuclear/cytoplasmic p65 ratio, rep 2: 1.68
- low cell count flag: enough cells to score

Krtap21-1 #1
- p65 translocation robust z-score: 0.09
- nuclear/cytoplasmic p65 ratio, rep 1: 1.56
- nuclear/cytoplasmic p65 ratio, rep 2: 1.46
- low cell count flag: enough cells to score

Krtap21-1 #2
- p65 translocation robust z-score: -0.8
- nuclear/cytoplasmic p65 ratio, rep 1: 1.45
- nuclear/cytoplasmic p65 ratio, rep 2: 1.31
- low cell count flag: enough cells to score

Tpcn2
- p65 translocation robust z-score: -0.58
- nuclear/cytoplasmic p65 ratio, rep 1: 1.49
- nuclear/cytoplasmic p65 ratio, rep 2: 1.39
- low cell count flag: enough cells to score

Tomm70a
- p65 translocation robust z-score: 0.34
- nuclear/cytoplasmic p65 ratio, rep 1: 1.59
- nuclear/cytoplasmic p65 ratio, rep 2: 2.1
- low cell count flag: enough cells to score

Plac8
- nuclear/cytoplasmic p65 ratio, rep 1: 1.56
- nuclear/cytoplasmic p65 ratio, rep 2: 1.42
- low cell count flag: fewer than 50 cells per well; well left out of scoring

Alyreffm1
- p65 translocation robust z-score: -0.3
- nuclear/cytoplasmic p65 ratio, rep 1: 1.19
- nuclear/cytoplasmic p65 ratio, rep 2: 1.31
- low cell count flag: enough cells to score

Polr2h
- p65 translocation robust z-score: -0.36
- nuclear/cytoplasmic p65 ratio, rep 1: 1.25
- nuclear/cytoplasmic p65 ratio, rep 2: 1.25
- low cell count flag: enough cells to score

Gpr119
- p65 translocation robust z-score: 0.07
- nuclear/cytoplasmic p65 ratio, rep 1: 1.49
- nuclear/cytoplasmic p65 ratio, rep 2: 1.62
- low cell count flag: enough cells to score

Gpr119
- p65 translocation robust z-score: 0.27
- nuclear/cytoplasmic p65 ratio, rep 1: 1.55
- nuclear/cytoplasmic p65 ratio, rep 2: 1.62
- low cell count flag: enough cells to score

Igsf11
- p65 translocation robust z-score: -0.67
- nuclear/cytoplasmic p65 ratio, rep 1: 1.48
- nuclear/cytoplasmic p65 ratio, rep 2: 1.32
- low cell count flag: enough cells to score

Brdt
- p65 translocation robust z-score: 0.05
- nuclear/cytoplasmic p65 ratio, rep 1: 1.52
- nuclear/cytoplasmic p65 ratio, rep 2: 1.53
- low cell count flag: enough cells to score

Atp1a2
- p65 translocation robust z-score: -0.27
- nuclear/cytoplasmic p65 ratio, rep 1: 1.54
- nuclear/cytoplasmic p65 ratio, rep 2: 1.61
- low cell count flag: enough cells to score

Quoted from the listing for reference:
Vmn1r26
- p65 translocation robust z-score: -1.02
- nuclear/cytoplasmic p65 ratio, rep 1: 1.28
- nuclear/cytoplasmic p65 ratio, rep 2: 1.09
- low cell count flag: enough cells to score

Vipas39
- p65 translocation robust z-score: -0.31
- nuclear/cytoplasmic p65 ratio, rep 1: 1.52
- nuclear/cytoplasmic p65 ratio, rep 2: 1.68
- low cell count flag: enough cells to score
